Most values lie at the floor of the assay. Slopes are relative: functional sequences can read slightly below zero.

The source of these data is the supplement of paper PMC5949888.

This data set relates to Saccharomyces cerevisiae PS128 hsf1 delta, HSF1(1-493) fusion. Kind of data set: growth estimate (transactivation domain function in HSF1 fusion, heat-shock survival) (a.u. (slope of normalised read count over time)); higher = stronger growth at 37°C, i.e. more transactivation activity. As to conditions: library: random library.
Take TFPASSQHTRC: the growth estimate is under -0.25.

As for RSATTRRLPRRPGLVRAIVG, the growth estimate is under -0.25.

Consider GMPRPQFLSSARDSKLPVRA, for which the growth estimate is under -0.25.

With LLRVI, the growth estimate is under -0.25.

For the substance RFSHSRFWVCWRDNGAFRHG, the growth estimate is under -0.25.

For RLDRWRVVIDSQHGFSRGAK, the growth estimate was under -0.25.

For SIWHKWTDLICAC, the growth estimate is under -0.25.

Turning to GPLP, the growth estimate is under -0.25.

Consider LKGPPDSDLLPAQVGLYPRV, for which the growth estimate was under -0.25.

Regarding LPGLLPGRYDLDRGRHAQVR, the growth estimate is under -0.25.

Turning to DRGVRIGLKRPTYIPFWLAV, the growth estimate is under -0.25.

With YDGNFLMDNEVSPLRRRQWS, the growth estimate is under -0.25.

With RTGTPKQPVSISFPSRFSPR, the growth estimate is under -0.25.

With DSTCPDGRTTVNQCAALLLG, the growth estimate was under -0.25.

In the case of GVSRRLLIVIDTAVRVRGGA, the growth estimate is under -0.25.

Consider SLRNVLQSAGGARFPIDVVS, for which the growth estimate was under -0.25.

As to NTGTNL, the growth estimate was under -0.25.

For YTYCIGGR, the growth estimate was under -0.25.

Turning to DDMRT, the growth estimate is under -0.25.

As for DRRDPLRAWEYRRTSETPFG, the growth estimate is under -0.25.

GVNGSTPHVRRRVVNA: the growth estimate is under -0.25.

For the substance GLWEHLKLVGRR, the growth estimate is under -0.25.

Take YSDGCAEARLQNAFPTDIDP: the growth estimate was 3.24.

Consider RGSRKVFPLKEEVPLWVQKL, for which the growth estimate is under -0.25.

Regarding TVVDR, the growth estimate is -0.245.

As for TLGFPITGPATPTPGNLYTK, the growth estimate is under -0.25.

As for NKALSTETAVAKIWTERRGN, the growth estimate is under -0.25.

On to TILGVEQWTCSLAARVLIE, for which the growth estimate was under -0.25.

As to WLCGKSLG, the growth estimate was under -0.25.

Take PSMVPGGVADRQRPYSLLPN: the growth estimate was under -0.25.

As to SVWGGSREGRVSRRLSVMSR, the growth estimate was -0.145.

For the substance SDLGLEVAKTWWIHDSLGKT, the growth estimate is under -0.25.

For the substance LALVKYRED, the growth estimate was under -0.25.

For the substance LVGWRGQHTLVSFAQPQVIS, the growth estimate was under -0.25.

As to MRSIDREATVHIWARSLDKT, the growth estimate is -0.246.

With VSQGMTVSIPKRLGVAFIY, the growth estimate was under -0.25.

Take LGECGIATWLLQPRLL: the growth estimate is under -0.25.

Turning to EKCTAPYYLDGWGASACLSL, the growth estimate is under -0.25.

With GVKSI, the growth estimate is under -0.25.

For the substance SVLATFGMGRPPPLFSYTRD, the growth estimate was under -0.25.

In the case of GRL, the growth estimate was under -0.25.

On to SDTW, for which the growth estimate is under -0.25.

For RVGVGRVRIPMRFYASVALS, the growth estimate was under -0.25.

Take IIRDTIMDCDYLVESS: the growth estimate was under -0.25.

Regarding AIFGRLRTWVQPPETRLSVR, the growth estimate was under -0.25.

As to LRNFNLFFKGIGVNMACRCT, the growth estimate is under -0.25.

Take WLA: the growth estimate was under -0.25.

IVHWLPAGSLGLVRDYIEHR: the growth estimate is under -0.25.

In the case of SPPF, the growth estimate was under -0.25.

Take IRRLRYIEVYLRGFR: the growth estimate is under -0.25.

In the case of SLSGVTQMERLSLSGFFATA, the growth estimate is under -0.25.

In the case of DTSSNASHMHCSGGKAVSKS, the growth estimate is under -0.25.

Take FPRIAGIPRAKPIRKNPPYI: the growth estimate is under -0.25.

For WSPPSRI, the growth estimate was under -0.25.

Consider CDCLLAGDSTSD, for which the growth estimate was under -0.25.

Consider SAIGSLHLVYTYSSSWMSLA, for which the growth estimate was under -0.25.

With LNWLEDALANF, the growth estimate is under -0.25.

As to PTANDHQRTGRGPPLYWLHP, the growth estimate is under -0.25.

As to EPEYSVWRDMCRTSDKARLH, the growth estimate was under -0.25.

Regarding SGATGRYGVRSHSSIIFEVD, the growth estimate was under -0.25.

Take NDMCFDSWST: the growth estimate is under -0.25.

On to RRW, for which the growth estimate was under -0.25.

KYRF: the growth estimate was under -0.25.

EYGRR: the growth estimate is under -0.25.

Take VIRPSS: the growth estimate was under -0.25.

Take IESVELRN: the growth estimate is under -0.25.

As to AYTWLPMWVDQRVPVRGMLR, the growth estimate was under -0.25.

Consider LRRRSATRGSSGAVNDKHVL, for which the growth estimate was under -0.25.

On to SICVEMAWRSGSASADRTFY, for which the growth estimate was under -0.25.

For SCRGRRGFNRNTG, the growth estimate is under -0.25.

In the case of REGRLL, the growth estimate is -0.245.

In the case of EVRTHNPTMA, the growth estimate was under -0.25.

For the substance SMR, the growth estimate is under -0.25.

In the case of ATFGGNNVLIENVGVKPSCI, the growth estimate is under -0.25.

Turning to LGFKNRLRDSGGL, the growth estimate is under -0.25.

For TRRNQQ, the growth estimate was under -0.25.

With QLSPGVKCCELAKVGIV, the growth estimate was under -0.25.

On to VTGLILYKMKT, for which the growth estimate was under -0.25.

As for LVGKMSPSSKVAKEKVRRLN, the growth estimate is -0.243.
